Where two headings read alike, the source gives them in different places.
Legend:
in vivo = conditions: Indian origin, rhesus monkey, po
[1] = human historical data, cited from earlier work
[2] = Indian origin, rhesus monkey, in vivo, po

Cc1cc(NS(=O)(=O)c2ccc(N)cc2)no1 [Sulfamethoxazole]
AUC(0-t) (in vivo): 792 µg·h/mL | Tmax ([1]; TMP-SMX, ref Patel et al. 1980, Dudley et al. 1984): 1 to 4 h | AUC0–24 ([1]; dose 5 mg/kg trimethoprim and 25 mg/kg sulfamethoxazole iv, ref Dudley et al. Antimicrob Agents Chemother 1984;26:811–814): 1160 ^2 µg*hr/mL | Cmax ([1]; dose 160 mg trimethoprim and 800 mg sulfamethoxazole, ref Patel et al. Clin Pharmacokinet 1980;5:405–423): 40–60 ^1 µg/mL | Cmax [2]: 57.7 µg/mL
